Laboratory results taken from US8575183B2, “Heterocyclic compounds and their uses” (priority 2010, dated 2013).
At least one compound was matched to its structure with a doubt left.

How the values were obtained:
[1] = test system: MDA MB468 Forkhead-DiversaGFP cells; assay: Forkhead translocation assay; type: cell-based; details: control, 10 uM
[2] = test system: neutrophil superoxide release; details: neutrophils; cited from earlier work
Class I PI 3-kinases = details: read-out: IC50 against each of the various Class I PI 3-kinases; cited from earlier work
CHO-1R-AKT1-EGFP cells = assay: AKT membrane ruffling assay; type: cell-based; details: control, 10 uM
U2OS EGFP-2XFYVE cells = assay: Class III PI(3)P assay; type: cell-based; details: control, 10 uM
neutrophil migration = details: cited from earlier work

COC[C@H]1OC(=O)c2coc3c2[C@@]1(C)C1=C(C3=O)[C@@H]2CCC(=O)[C@@]2(C)C[C@H]1OC(C)=O [Wortmannin]
Forkhead localisation [1]: nuclear
superoxide release [2]: block
IC50 (Class I PI 3-kinases): 1 to 10 nM
AKT localisation (CHO-1R-AKT1-EGFP cells): cytoplasmic
PI(3)P on endosomes (U2OS EGFP-2XFYVE cells): depleted from endosomes
neutrophil migration (neutrophil migration): block
